Laboratory results published in PMC2423482, “UDP-N-Acetylglucosamine 2-Epimerase/N-Acetylmannosamine Kinase (GNE) Binds to Alpha-Actinin 1: Novel Pathways in Skeletal Muscle?” (PLoS ONE, 2008).
No constants are given. Whether binding was seen depends on the method and setting. In cells and extracts the contact can be indirect. These calls come from enrichment with a bait or labelling near it, and not all partners need be listed. Sequences can lack the tags named with a protein.

Sequences of proteins named here, by UniProt entry; tags and fusion partners are left off.
UniProt P12814: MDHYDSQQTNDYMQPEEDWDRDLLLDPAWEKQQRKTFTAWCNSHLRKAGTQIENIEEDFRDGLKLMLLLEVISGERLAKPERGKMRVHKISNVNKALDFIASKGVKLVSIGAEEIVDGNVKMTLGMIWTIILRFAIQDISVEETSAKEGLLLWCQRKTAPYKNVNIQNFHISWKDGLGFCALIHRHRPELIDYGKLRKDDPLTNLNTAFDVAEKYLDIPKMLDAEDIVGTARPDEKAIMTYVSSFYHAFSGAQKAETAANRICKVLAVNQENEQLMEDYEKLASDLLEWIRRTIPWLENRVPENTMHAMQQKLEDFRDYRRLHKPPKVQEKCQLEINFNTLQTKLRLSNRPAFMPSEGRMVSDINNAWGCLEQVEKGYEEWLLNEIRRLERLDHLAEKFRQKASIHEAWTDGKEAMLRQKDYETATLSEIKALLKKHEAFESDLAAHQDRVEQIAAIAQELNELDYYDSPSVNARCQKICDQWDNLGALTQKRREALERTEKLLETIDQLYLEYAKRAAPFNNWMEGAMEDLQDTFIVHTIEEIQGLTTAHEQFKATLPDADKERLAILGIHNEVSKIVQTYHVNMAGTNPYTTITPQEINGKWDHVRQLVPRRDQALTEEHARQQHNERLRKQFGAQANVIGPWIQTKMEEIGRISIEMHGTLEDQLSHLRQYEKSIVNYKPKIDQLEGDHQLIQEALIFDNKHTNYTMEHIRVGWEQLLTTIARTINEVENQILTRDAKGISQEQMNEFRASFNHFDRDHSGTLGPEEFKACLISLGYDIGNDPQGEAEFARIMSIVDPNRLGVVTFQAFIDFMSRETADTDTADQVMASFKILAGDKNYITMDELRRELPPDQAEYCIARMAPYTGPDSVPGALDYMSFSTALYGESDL

Target: T1, His-tagged wild type UDP-N-acetylglucosamine 2-epimerase/N-acetylmannosamine kinase (GNE) (human) (UniProt Q9Y223)
T1 sequence: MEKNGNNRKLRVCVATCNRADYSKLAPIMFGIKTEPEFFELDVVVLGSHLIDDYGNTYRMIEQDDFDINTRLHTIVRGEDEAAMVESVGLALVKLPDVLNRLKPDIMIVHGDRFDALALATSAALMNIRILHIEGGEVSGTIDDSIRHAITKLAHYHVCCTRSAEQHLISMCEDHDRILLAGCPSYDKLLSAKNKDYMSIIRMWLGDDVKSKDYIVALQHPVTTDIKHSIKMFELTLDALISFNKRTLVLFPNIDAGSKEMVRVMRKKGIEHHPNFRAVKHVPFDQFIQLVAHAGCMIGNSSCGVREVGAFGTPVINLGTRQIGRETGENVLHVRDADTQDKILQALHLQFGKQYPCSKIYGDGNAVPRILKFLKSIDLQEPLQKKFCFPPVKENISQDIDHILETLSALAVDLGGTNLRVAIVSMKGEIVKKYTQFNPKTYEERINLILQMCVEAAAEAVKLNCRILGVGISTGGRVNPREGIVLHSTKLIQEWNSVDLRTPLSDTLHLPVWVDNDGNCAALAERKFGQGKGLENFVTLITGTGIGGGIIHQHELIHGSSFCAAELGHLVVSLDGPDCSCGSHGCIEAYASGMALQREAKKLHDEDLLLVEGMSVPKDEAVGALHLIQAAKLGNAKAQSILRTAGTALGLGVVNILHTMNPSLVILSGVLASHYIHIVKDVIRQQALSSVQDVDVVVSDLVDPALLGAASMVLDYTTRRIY
Test: affinity purification with mass spectrometry; in vitro binding assay: His-tagged GNE pre-bound to Ni-NTA beads, incubated 2 h at 4°C with pooled BIAcore-positive anion-exchange fractions (#11-13, #14-16) of muscle cell lysate; washed in NaPi buffer pH 7.5 with 100 mM NaCl; SDS-PAGE, bands identified by MS; only the target purified

## α-actinin 1 of human skeletal muscle primary culture cell lysate (from UniProt P12814 1-892)
  binding: binds
